From PMC4350363
These are yes or no findings as the source states them, for the method shown. Binding seen in cells or lysates may run through a third protein. Some binding calls cover weakened binding; strength is not graded here.

Molecular target: T1, LATS2 (human (endogenous in MDA-MB-231)) (UniProt Q9NRM7)
T1 sequence: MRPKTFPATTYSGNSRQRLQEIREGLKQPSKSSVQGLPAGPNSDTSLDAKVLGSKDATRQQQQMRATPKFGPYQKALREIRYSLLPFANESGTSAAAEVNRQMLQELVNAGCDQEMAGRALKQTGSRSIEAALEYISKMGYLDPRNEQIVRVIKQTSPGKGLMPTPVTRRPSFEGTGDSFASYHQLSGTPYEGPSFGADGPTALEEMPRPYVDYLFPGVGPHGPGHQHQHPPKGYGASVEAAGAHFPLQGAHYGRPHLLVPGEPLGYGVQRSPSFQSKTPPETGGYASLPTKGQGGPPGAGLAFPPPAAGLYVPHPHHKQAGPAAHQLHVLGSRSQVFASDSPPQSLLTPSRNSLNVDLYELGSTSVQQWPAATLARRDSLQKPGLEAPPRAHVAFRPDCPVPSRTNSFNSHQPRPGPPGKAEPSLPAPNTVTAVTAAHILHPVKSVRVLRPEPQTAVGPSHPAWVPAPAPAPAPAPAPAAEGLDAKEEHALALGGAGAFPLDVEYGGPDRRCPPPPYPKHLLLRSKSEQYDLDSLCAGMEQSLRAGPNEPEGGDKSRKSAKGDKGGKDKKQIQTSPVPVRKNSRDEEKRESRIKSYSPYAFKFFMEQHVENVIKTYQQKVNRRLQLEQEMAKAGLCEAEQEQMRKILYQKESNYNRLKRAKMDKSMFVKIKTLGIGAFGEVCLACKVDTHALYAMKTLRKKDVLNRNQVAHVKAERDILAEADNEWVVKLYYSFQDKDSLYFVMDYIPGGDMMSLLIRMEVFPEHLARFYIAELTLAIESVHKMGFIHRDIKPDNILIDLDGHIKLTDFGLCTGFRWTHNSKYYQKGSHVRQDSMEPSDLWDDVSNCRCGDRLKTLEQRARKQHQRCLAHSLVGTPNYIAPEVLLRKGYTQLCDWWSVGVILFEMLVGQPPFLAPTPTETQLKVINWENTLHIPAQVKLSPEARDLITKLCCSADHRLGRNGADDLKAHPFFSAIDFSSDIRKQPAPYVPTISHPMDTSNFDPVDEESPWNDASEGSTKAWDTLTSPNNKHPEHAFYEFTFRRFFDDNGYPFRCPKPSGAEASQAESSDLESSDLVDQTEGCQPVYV
Assay: co-IP; endogenous proteins; 0.75 mg whole cell lysate in RIPA buffer from MDA-MB-231 cells exposed to 1% O2 for 48 h with 10 μM MG132 for the last 6 h; IP with anti-LATS2 or anti-SIAH1 antibody (IgG as control) and protein G-Sepharose overnight at 4°C, beads washed 5 times in lysis buffer; immunoblot for LATS2 or SIAH1

B1: SIAH1 (enzyme, UniProt Q8IUQ4-1 1-282)
chain: MSRQTATALPTGTSKCPPSQRVPALTGTTASNNDLASLFECPVCFDYVLPPILQCQSGHLVCSNCRPKLTCCPTCRGPLGSIRNLAMEKVANSVLFPCKYASSGCEITLPHTEKADHEELCEFRPYSCPCPGASCKWQGSLDAVMPHLMHQHKSITTLQGEDIVFLATDINLPGAVDWVMMQSCFGFHFMLVLEKQEKYDGHQQFFAIVQLIGTRKQAENFAYRLELNGHRRRLTWEATPRSIHEGIATAIMNSDCLVFDTSIAQLFAENGNLGINVTISMC
Q: B1 was tested. Which binding did it give?
A: Its binding is “binds”.
